According to patent US11066638B2 (priority 2016, dated 2021):

Columns and labels:
[1] = test system: Listeria monocytogenes; conditions: MIC treatment for 60 minutes
[2] = test system: Listeria monocytogenes; conditions: MIC treatment, harvested at 15, 30, 45 and 60 minutes, 12% SDS-PAGE
[3] = test system: Listeria monocytogenes; conditions: MIC treatment for 60 minutes; remark: listed apart in the source

| Compound | DNA remaining in bacterial ghosts (agarose gel) [1] | proteins remaining in bacterial ghosts [2] | Ct value compared with TE buffer solution [3] | genomic DNA amplification in bacterial ghosts (real-time PCR) [3] |
| --- | --- | --- | --- | --- |
| Cl [hydrochloric acid] | no DNA remaining | high molecular weight proteins mainly remained | lower than that of a TE buffer solution | DNA amplification was not observed at all |
| [Na+].[OH-] [sodium hydroxide] | no DNA remaining | low molecular weight proteins mainly remained |  |  |
